The values that follow come from publication PMC11519374.

Protein sequences, listed by entry. Tags and fused reporters are not part of them. Lines headed by an entry give the natural chain unless they say otherwise; changes in a name come on top.
UniProt Q9BST9: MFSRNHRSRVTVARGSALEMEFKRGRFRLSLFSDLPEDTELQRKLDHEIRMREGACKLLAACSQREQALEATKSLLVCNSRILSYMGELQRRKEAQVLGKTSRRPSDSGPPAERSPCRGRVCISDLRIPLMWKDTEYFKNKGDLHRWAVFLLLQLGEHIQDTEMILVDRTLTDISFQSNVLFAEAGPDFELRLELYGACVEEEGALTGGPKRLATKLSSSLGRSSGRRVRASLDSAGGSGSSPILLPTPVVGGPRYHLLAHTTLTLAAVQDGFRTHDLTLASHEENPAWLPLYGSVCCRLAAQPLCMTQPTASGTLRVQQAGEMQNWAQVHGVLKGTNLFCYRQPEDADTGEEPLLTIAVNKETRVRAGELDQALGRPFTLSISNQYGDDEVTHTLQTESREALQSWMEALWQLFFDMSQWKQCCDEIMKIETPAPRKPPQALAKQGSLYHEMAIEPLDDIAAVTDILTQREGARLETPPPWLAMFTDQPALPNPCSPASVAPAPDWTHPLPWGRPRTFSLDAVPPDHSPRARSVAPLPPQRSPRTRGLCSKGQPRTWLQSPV
UniProt P61586: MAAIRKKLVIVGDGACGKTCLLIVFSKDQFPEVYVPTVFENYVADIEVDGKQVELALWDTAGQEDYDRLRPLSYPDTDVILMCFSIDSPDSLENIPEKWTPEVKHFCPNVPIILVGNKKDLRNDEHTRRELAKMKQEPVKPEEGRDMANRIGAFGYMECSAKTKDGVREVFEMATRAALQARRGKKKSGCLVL

These are yes or no findings as the source states them, for the method shown. In cells and extracts the contact can be indirect. A result given as binding can be weak or reduced; the word gives no strength.

In experiment [1] the target is GST-rhotekin-Rho binding domain (UniProt Q9BST9). The experiment in a line: pull-down; GST-RBD bound to glutathione Sepharose beads, mixed with lysates of starved cells for 2 h at 4°C; RhoA detected by Western blot; cells treated with Dox (TBC1D3C or TBC1D3C-RD2A), Noc, C3, Rhosin or with GEF-H1 knockout; only the target purified.
The target in experiment [2] is T1, GEF-H1 (human (endogenous in U2OS and HEK293A)) (UniProt Q92974).
T1 sequence: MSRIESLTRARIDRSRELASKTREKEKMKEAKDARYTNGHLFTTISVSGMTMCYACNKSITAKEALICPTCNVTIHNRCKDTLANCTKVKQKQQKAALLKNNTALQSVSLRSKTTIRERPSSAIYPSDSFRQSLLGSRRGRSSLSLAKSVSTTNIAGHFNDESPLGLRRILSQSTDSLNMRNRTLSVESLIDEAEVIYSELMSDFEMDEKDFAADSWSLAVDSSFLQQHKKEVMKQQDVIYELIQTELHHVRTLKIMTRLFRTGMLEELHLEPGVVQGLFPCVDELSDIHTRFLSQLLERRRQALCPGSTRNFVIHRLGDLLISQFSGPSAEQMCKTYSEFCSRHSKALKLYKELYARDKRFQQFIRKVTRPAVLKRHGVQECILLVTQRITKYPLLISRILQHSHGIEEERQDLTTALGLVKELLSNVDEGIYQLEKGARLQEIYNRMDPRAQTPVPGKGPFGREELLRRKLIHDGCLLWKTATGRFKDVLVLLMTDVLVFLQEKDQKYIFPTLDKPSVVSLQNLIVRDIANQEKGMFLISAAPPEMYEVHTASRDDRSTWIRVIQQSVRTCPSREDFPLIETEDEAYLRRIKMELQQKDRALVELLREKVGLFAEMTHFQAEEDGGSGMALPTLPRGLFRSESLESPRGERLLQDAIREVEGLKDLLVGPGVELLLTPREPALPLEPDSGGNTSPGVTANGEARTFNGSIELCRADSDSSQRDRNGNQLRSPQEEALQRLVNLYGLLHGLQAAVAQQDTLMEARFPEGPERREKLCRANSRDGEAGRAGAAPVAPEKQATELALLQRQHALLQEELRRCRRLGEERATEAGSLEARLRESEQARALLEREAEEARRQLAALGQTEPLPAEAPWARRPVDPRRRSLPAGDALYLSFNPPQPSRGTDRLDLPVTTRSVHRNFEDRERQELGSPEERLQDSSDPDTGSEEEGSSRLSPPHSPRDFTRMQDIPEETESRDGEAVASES
The experiment in a line: co-IP; immunoprecipitation with GEF-H1 antibody from lysates of cells with or without induction of TBC1D3C or TBC1D3C-RD2A; immunoblot for Tctex, DIC and 14-3-3. In general terms: Immunoblotting shows a protein as a band on a membrane.

Turning to RhoA (from UniProt P61586 1-193), the binding entry in experiment [1] is listed as “binds”. As to dynein intermediate chain, the binding result in experiment [2] is “binds”.
